This experiment is described as follows: qHTS Assay to Find Inhibitors of Chronic Active B-Cell Receptor Signaling. The conditions noted are these: ABC-DLBCL IkBa-CBG/CBR reporter, luminescence ratio (green luciferase fused to IkBa over red control in TMD8 lymphoma cells), 4 h. A digest of the protocol:
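Compounds up to 46 uM were incubated four hours with TMD8 cells whose green CBG68 luciferase is fused to IkappaBalpha; red CBR luminescence normalised the signal, and concentration-effect curves were fitted to fusion, red and ratio data.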
Background: qHTS replaces the single test concentration by a dilution series.

The mark [1] stands for this setting: measured here: CBR red luminescence, cell number.
The mark [2] stands for this setting: measured here: IkBa-CBG green luminescence.

The list shows a part of the results. Shown are side measurements of this screen, not its main read-out; they come without a call. Most of these compounds were active or inconclusive in the main read-out, so they are no random draw. Words in brackets tell the shape of the fitted curve; partial curves, single points and poor fits give uncertain potencies.

With `COc1ccccc1CN(C(=O)CNC(=O)c1ccco1)C(C(=O)NCC1CCCO1)c1ccccc1` (stereo unspecified), the AC50 – broadly, the midpoint of the concentration-response curve, whichever way the signal moves – under setting [1] was 6.31 µM [falling, single point].

In the case of `COc1cccc(/C=N/n2cnc3c(cnn3-c3ccccc3)c2=O)c1`, the AC50 under setting [1] is 3.98 µM [rising, partial curve, poor fit].

Regarding `CN(C)c1ccc(/C=C/c2nnnn2-c2ccccc2)cc1`, the AC50 under setting [1] was 29.1 µM [falling, single point].

With `C=CCn1c(-c2ccc(OC)c(OC)c2)cs/c1=N\c1ccccn1`, the AC50 under setting [1] was 0.731 µM [rising, partial curve].

For `COc1cc(NC(=O)c2ccc(COc3ccccc3Br)o2)cc(OC)c1OC`, the AC50 under setting [1] was 29.1 µM [falling, single point].

On to `O=C1N=c2ccccc2=C1c1sc(Nc2cccc(O)c2)nc1O`, for which the AC50 under setting [1] was 35.5 µM [falling, single point].

`COc1ccccc1C(=O)N1CCN(C(=O)c2ccncc2)CC1`: the AC50 under setting [1] is 6.51 µM [falling, single point].

Take `CC(C)[C@@H](CO)NC(=O)c1ccc2c3n(nc2c1)-c1ccccc1CO3`: the AC50 under setting [1] is 11.2 µM [falling, partial curve, poor fit].

Regarding `COc1ccc(NS(=O)(=O)c2cccc(N/C(=N\S(=O)(=O)c3ccccc3)c3ccc(F)cc3)c2)cc1`, the AC50 under setting [1] is 29.1 µM [falling, single point].

As to `COc1ccc(C(=O)CSc2nnc(COc3ccccc3)n2Cc2ccco2)cc1`, under setting [1], the AC50 is 35.5 µM [falling, single point].

On to `CCN(CC)CCn1c(NCc2ccc3c(c2)OCO3)nc2ccccc21`, for which, under setting [1], the AC50 was 14.1 µM [falling, single point].

As for `COc1ccc(-c2cc3nc(C)c(CCC(=O)NCc4ccco4)c(C)n3n2)c(OC)c1`, the AC50 under setting [1] is 5.8 µM [falling, partial curve].

Take `COc1ccc2ccc3c(c2c1)N=CC1(O3)N(C)c2ccccc2C1(C)C` (stereo unspecified): the half-maximal activity concentration (AC50) was 2.59 µM [falling, full curve, poor fit] under setting [1] and 23.1 µM [falling, partial curve, poor fit] under setting [2].

As to `Cc1ccccc1OCCC(=O)OCC(=O)Nc1ccc(N2CCOCC2)cc1`, the AC50 under setting [1] is 7.94 µM [falling, partial curve, poor fit].

For `Cc1ccc(NC(=O)CN(Cc2ccco2)Cc2ccccc2O)cc1C`, the AC50 under setting [1] is 35.5 µM [falling, partial curve, poor fit].

As to `O=C(Nc1ccc(F)cc1)C1CCCN1S(=O)(=O)c1ccc(Br)cc1` (stereo unspecified), the AC50 under setting [1] was 0.282 µM [rising, full curve, poor fit].

Take `CC(NC(=O)NC(=O)c1cccc([N+](=O)[O-])c1)C1CC1` (stereo unspecified): under setting [1], the AC50 was 35.5 µM [falling, single point].

For the compound `Cc1cc(N/N=C/c2ccc(O)cc2O)nc(-c2ccccc2O)n1`, under setting [1], the AC50 is 5.17 µM [falling, full curve, poor fit].

For the compound `COc1ccc2[nH]c(C(=O)N/N=C/c3ccccc3OC)cc2c1`, under setting [1], the AC50 is 11.2 µM [falling, partial curve, poor fit].

Turning to `O=C1OC(c2ccccc2)=C/C1=C/N1CCCCC1`, the AC50 under setting [1] was 4.47 µM [rising, partial curve, poor fit].

`CCCc1ccc(-c2ccc(F)c(N)c2)nc1`: the AC50 under setting [1] is 11.2 µM [falling, single point].

Take `Cc1ccc(NC(=O)C2SC(=Nc3ccccc3)C(C(=O)Nc3ccc(Cl)cc3)=C2N)cc1` (stereo unspecified): the AC50 under setting [1] is 14.1 µM [falling, single point].

As to `COc1ccc(Cc2nnc(-c3ccccc3)o2)cc1`, the AC50 under setting [1] is 1.12 µM [rising, partial curve, poor fit].

Regarding `COC(=O)c1ccc(C(=O)OC)c(NC(=O)N2c3ccccc3Sc3ccccc32)c1`, the AC50 under setting [1] is 25.9 µM [rising, single point].

Turning to `COc1ccccc1-c1cc(C(F)(F)F)nc(S(=O)(=O)CCCC(=O)Nc2cccnc2Cl)n1`, the AC50 by setting is: under setting [1], 11.2 µM [falling, partial curve]; under setting [2], 5.62 µM [rising, partial curve, poor fit].

On to `CCS(=O)(=O)N1Cc2ccccc2CC1C(=O)Nc1nc2ccccc2[nH]1` (stereo unspecified), for which, under setting [1], the AC50 is 5.01 µM [falling, partial curve, poor fit].

In the case of `O=C(N/N=C1/CC2C=CCC12)c1ccc(Br)o1` (stereo unspecified), under setting [1], the AC50 is 11.6 µM [falling, partial curve, poor fit].

For the compound `CCOC(=O)C(=CNc1ccc(-c2ccco2)c(Cl)c1)C(=O)OCC`, the AC50 under setting [1] was 20 µM [falling, partial curve, poor fit].

Consider `O=S(=O)(NC1CCCCC1N1CCC(O)CC1)c1ccc(Cl)cc1` (stereo unspecified), for which the AC50 under setting [1] was 10 µM [rising, partial curve, poor fit].

In the case of `COC(=O)C(C(C)=O)C1=C/C(=N\S(=O)(=O)c2ccc(C)cc2)c2ccccc2C1=O` (stereo unspecified), under setting [1], the AC50 was 11.6 µM [falling, partial curve, poor fit].

As to `COc1ccc(OC)c(NC(=O)COC(=O)/C=C/c2c(C)nn(C3CCS(=O)(=O)C3)c2Cl)c1` (stereo unspecified), the AC50 under setting [1] was 7.08 µM [rising, partial curve, poor fit].

Consider `COc1ccc(C(C)(C)C)cc1NC(=O)COc1ccc(-c2nnco2)cc1`, for which the AC50 under setting [1] was 18.4 µM [rising, single point].

Turning to `CC(=O)c1cccc(NC(=O)C(Sc2ncnc3ccccc23)c2ccccc2)c1` (stereo unspecified), the AC50 under setting [1] was 32.6 µM [falling, single point].

For `S=C1NCN(Cc2cccnc2)CN1c1cccc2ccccc12`, the AC50 under setting [1] is 7.08 µM [falling, full curve, poor fit].

Turning to `Cc1onc(-c2ccccc2Cl)c1C(=O)Nc1cnn(Cc2ccccc2)c1`, the AC50 under setting [1] is 13 µM [falling, single point].

`CCOc1ccc(NC(=O)CN(C)C(=O)CCN2C(=O)C3CC=CCC3C2=O)cc1OCC` (stereo unspecified): the AC50 under setting [1] was 3.26 µM [rising, full curve].

Regarding `CCCC(Oc1ccc(Br)cc1)c1nc2c3cc(OC)c(OC)cc3nc(=S)n2[nH]1` (stereo unspecified), the AC50 under setting [1] is 11.2 µM [rising, partial curve, poor fit].

For the compound `O=C(c1ccc(-c2ccccc2)cc1)N1CCN(c2ccccc2F)CC1`, the AC50 under setting [1] is 35.5 µM [falling, single point].

As for `O=C(O)c1c(F)c(F)c(F)c(F)c1-c1ccc(Cl)cc1`, the AC50 under setting [1] is 14.1 µM [falling, partial curve, poor fit].

Source of the values: PubChem BioAssay AID493014 (National Center for Advancing Translational Sciences (NCATS), 2011).
